Structures can show the parent of a compound that is named as a salt. ± gives the standard deviation of the averaged measurements. Whole data set: some 1,800 compounds, median “GFP- (p16Ink4a-) cell count relative to negative-control wells” near 0.99, cut for the lowest 2% near 0.5. This is one part of the list.

The subject of the experiment is mouse p16Ink4a+/- lung fibroblasts (INKBRITE, bleomycin-injured). Description: GFP- (p16Ink4a-) cell count relative to negative-control wells (fold of vehicle); higher = more p16Ink4a- cells surviving. The settings on record: 1 µM; 3 days.
Take `O=C(O)c1ccc(Nc2ncc3c(n2)-c2ccc(Cl)cc2C(c2c(F)cccc2F)=NC3)cc1`: the GFP- stood at 0.853 ± 0.012.
With `C[C@@H](N)[C@H]1CC[C@H](C(=O)Nc2ccncc2)CC1` the figure was 0.959; with `CC(C)c1c(C(=O)Nc2ccccc2)c(-c2ccccc2)c(-c2ccc(F)cc2)n1CC[C@@H](O)C[C@@H](O)CC(=O)O` [Atorvastatin], 1.07.
Consider `COc1ccc2c(Oc3ccc(NC(=O)c4c(C)n(CC(C)(C)O)n(-c5ccccc5)c4=O)nc3)ccnc2c1`, for which the GFP- was found to be 0.835.
The figure for `CN(C)CCC(c1ccc(Br)cc1)c1ccccn1` (stereo not drawn) [Brompheniramine] is 1.07; for `CC1(C)SC2C(NC(=O)[C@H](NC(=O)N3CCNC3=O)c3ccccc3)C(=O)N2C1C(=O)O` (stereo partly drawn) [Azlocillin sodium salt] it is 0.956; for `CCNC1=N[C@@H]2[C@@H](O)[C@H](O)[C@@H](CO)O[C@@H]2S1` [Thiamet G] it is 0.965.
Consider `O=C(c1ccc(/C=C/c2[nH]nc3ccccc23)cc1)N1CCNCC1`, for which the GFP- was 0.785 ± 0.0081.
The figure for `CN1CCN2c3ccccc3Cc3ccccc3C2C1` (stereo not drawn) [Mianserin] is 0.956; for `C[C@H]1O[C@@H](n2cc(F)c(=O)[nH]c2=O)[C@H](O)[C@@H]1O` [Doxifluridine] it is 1.1; for `CC(=O)Nc1cccc2c1c(Sc1ccc(Cl)cc1)c(C)n2CC(=O)O` it is 1.07.
With `O=C(NC(NC(=S)Nc1ccc(F)c([N+](=O)[O-])c1)C(Cl)(Cl)Cl)C(c1ccccc1)c1ccccc1` (stereo not drawn) the figure was 1.16.
The compound `CCS(=O)(=O)Nc1ccc2[nH]c(O)c(/C(=N/c3ccc(CN4CCCCC4)cc3)c3ccccc3)c2c1` [Hesperadin] displayed a GFP- of 0.811 ± 0.18.
The compound `C=CC(=O)Nc1cccc(Nc2nc(Nc3ccc(N4CCN(C(C)=O)CC4)cc3OC)ncc2C(F)(F)F)c1` registered a GFP- of 0.811.
With `Cc1noc(NS(=O)(=O)c2ccc(N)cc2)c1C` [Sulfisoxazole] the figure was 1; with `NC1=NCC2c3ccccc3Cc3ccccc3N12` (stereo not drawn) [Epinastine], 0.971; with `C=C[C@@]1(C)CC(=O)[C@]2(O)[C@@]3(C)[C@@H](O)CCC(C)(C)[C@@H]3[C@H](O)[C@H](OC(C)=O)[C@@]2(C)O1` [Colforsin], 0.89.
The figure for `c1ccc([C@H]2CN3CCSC3=N2)cc1` [Levamisole] is 0.961.
Take `COc1cc2nc(N(C)CCCNC(=O)C3CCCO3)nc(N)c2cc1OC` (stereo not drawn) [Alfuzosin Hydrochloride, Alfuzosin]: the GFP- was found to be 1.25.
The figure for `N#CC[C@H](C1CCCC1)n1cc(-c2ncnc3[nH]ccc23)cn1` [Ruxolitinib] is 0.944 ± 0.17; for `O=C(Nc1ccccc1)c1ccccc1O` [Salicylanilide] it is 0.885; for `CC(=O)Oc1ccccc1C(=O)Nc1ncc([N+](=O)[O-])s1` [Nitazoxanide] it is 1.18.
With `CC(C)(OCc1nn(Cc2ccccc2)c2ccccc12)C(=O)O` [Bindarit] the figure was 1.09; with `O=C(CCCS)NC1CCN(C(=O)COc2ccc(Cl)cc2Cl)CC1` [K-Ras(G12C) inhibitor 6], 0.999; with `Nc1ccc(C(=O)Nc2cccc(-c3nc(N4CCOCC4)c4oc5ncccc5c4n3)c2)cn1`, 0.688.
The figure for `C[C@]12CCC(=O)C=C1[C@@H]1C[C@@H]1[C@H]1[C@@H]3[C@@H]4C[C@@H]4[C@@]4(CCC(=O)O4)[C@@]3(C)CC[C@@H]12` [Drospirenone] is 0.987; for `CC(=O)[C@]1(O)Cc2c(O)c3c(c(O)c2[C@@H](O[C@H]2C[C@H](N)[C@H](O)[C@H](C)O2)C1)C(=O)c1ccccc1C3=O` [Idarubicin, Idarubicin Hydrochloride] it is 0.224; for `CC(C)(C(=O)O)c1ccc(C(O)CCCN2CCC(C(O)(c3ccccc3)c3ccccc3)CC2)cc1` (stereo not drawn) [Fexofenadine] it is 1.09.
Compound `O=c1[nH]c(=O)n([C@H]2CCCO2)cc1F` showed a GFP- of 1.2.
As to `CCOC(=O)C1=C[C@@H](OC(CC)CC)[C@H](NC(C)=O)[C@@H](N)C1` [Oseltamivir], the GFP- amounted to 1.08.
`C[C@@H]1COC(Nc2ccc3ncnc(Nc4ccc(OCc5nccs5)c(Cl)c4)c3c2)=N1` [Varlitinib] had a GFP- of 0.881.
The figure for `CC(=O)O[C@H]1C(=O)[C@@]2(C)C([C@H](OC(=O)c3ccccc3)[C@]3(O)C[C@H](OC(=O)[C@H](O)[C@@H](NC(=O)c4ccccc4)c4ccccc4)C(C)=C1C3(C)C)[C@]1(OC(C)=O)CO[C@@H]1C[C@@H]2O` (stereo partly drawn) [Taxol, Paclitaxel] is 0.505; for `C[C@H]1[C@H](C)CC[C@]2(C(=O)O)CC[C@]3(C)C(=CC[C@@H]4[C@@]5(C)C[C@@H](O)[C@H](O)[C@@](C)(CO)[C@@H]5CC[C@]43C)[C@H]12` [Asiatic Acid] it is 0.976; for `CC(C)c1cc(C(=O)N2Cc3ccc(CN4CCN(C)CC4)cc3C2)c(O)cc1O` [Onalespib] it is 0.616.
Consider `COc1ccc(-c2cc(=O)c3c(O)cc(O)cc3o2)cc1O` [Diosmetin], for which the GFP- is 1.1.
With `Oc1ncc(F)c(O)n1` [Fluorouracil] the figure was 0.733; with `O=C1C[C@@H](c2ccc(O)cc2)Oc2cc(O)cc(O)c21` [Naringenin], 0.938.
Compound `COc1cnc(NS(=O)(=O)c2ccc(N)cc2)nc1` [Sulfameter] had a GFP- of 0.919.
With `Cc1cc(CN2CCN(c3c(Br)cnc4[nH]c(-c5ccc(N6CCN(C)CC6)cc5)nc34)CC2)no1` the figure was 0.664 ± 0.17.
With `CN(C)Cc1c(C(=O)NCCOc2ccc(C(=O)NO)cc2)oc2ccccc12` [Abexinostat] the figure was 0.637 ± 0.031; with `COc1ccc(-n2c(C)c([N+](=O)[O-])c3ccc(O)cc32)cc1`, 1.
In the case of `CC(=O)/N=c1/sc(S(N)(=O)=O)nn1C` [Methazolamide], the GFP- came out at 1.16.
With `CCCCCCCCc1ccc(CCC(N)(CO)CO)cc1` [Fingolimod] the figure was 1.22.
The figure for `CC[C@@H](C)Nc1cc(C(=O)NC2CC3CCC(C2)N3c2ccc(C(=O)C3CC3)cn2)c(C)cc1C(N)=O` (stereo partly drawn) is 0.518.
As to `COC(=O)Nc1ccc(-c2nc(N3CCOCC3)c3cnn(C4CCN(C(=O)OC)CC4)c3n2)cc1`, the GFP- stood at 1.02.
Compound `Clc1ccc(COC(Cn2ccnc2)c2ccc(Cl)cc2Cl)cc1` (stereo not drawn) [Econazole] returned a GFP- of 1.06.
With `Cc1ccc(-c2c(-c3nn(C)c4ncnc(N5CC[C@H](N6CCCCC6)C5)c34)cnn2C)cc1` the figure was 1.07; with `CC1(C)O[C@@H]2C[C@H]3[C@@H]4C[C@H](F)C5=CC(=O)C=C[C@]5(C)[C@@]4(F)[C@@H](O)C[C@]3(C)[C@]2(C(=O)CO)O1` [Fluocinolone Acetonide], 1.

Source of the values: the supplement of paper PMC11060735.
